This note sets out measurements from patent publication US20210024646A1.

Results are given in words; binding and its absence hold for the method and conditions named. Some binding calls cover weakened binding; strength is not graded here.

The experiment has as its target T1, CD73 on the surface of human tumor cells (human) (UniProt P21589).
T1 sequence (looked up): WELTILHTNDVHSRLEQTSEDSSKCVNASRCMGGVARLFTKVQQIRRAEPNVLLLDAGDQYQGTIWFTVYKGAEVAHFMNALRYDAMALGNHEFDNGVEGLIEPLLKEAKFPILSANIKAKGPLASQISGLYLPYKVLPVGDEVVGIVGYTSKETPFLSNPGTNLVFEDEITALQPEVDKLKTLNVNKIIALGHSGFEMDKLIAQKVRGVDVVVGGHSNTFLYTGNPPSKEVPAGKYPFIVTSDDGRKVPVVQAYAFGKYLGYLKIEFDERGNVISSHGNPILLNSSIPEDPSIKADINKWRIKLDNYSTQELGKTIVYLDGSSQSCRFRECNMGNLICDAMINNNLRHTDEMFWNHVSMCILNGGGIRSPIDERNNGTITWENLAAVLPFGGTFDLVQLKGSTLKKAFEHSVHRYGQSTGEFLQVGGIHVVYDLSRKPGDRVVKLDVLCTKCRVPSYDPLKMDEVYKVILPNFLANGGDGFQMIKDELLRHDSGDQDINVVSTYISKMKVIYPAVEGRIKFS
Put plainly: flow cytometry, MDA-MB-231 cells. (In general: A flow cytometer gives signals particle by particle.)

B1: mAb002c-VH-QG (antibody, V domains shown)
VH: QVQLQQPGAELVKPGASVRLSCKASGYTLTSYWMHWVKKRPGQGLEWIGEINPSQGRSNYNEKFKSKATLTVDRSSSTVYMQLGSLTSEDSAVYYCARRGVSGNYFDYWGQGTTLTVSS
VL: DIKMTQSPSSMYASLGERVTMTCKASQDINTYLSWFQQKPGKSPKTLIYRSNILVDGVPSRFSGSRSGQDYYLTITSLEYEDMGIYYCLQYDEFPYTFGGGTKLELK
In the case of B1, the binding entry is “binds”.

B2: mAb002c-VH-NA (antibody, V domains shown)
VH: QVQLQQPGAELVKPGASVRLSCKASGYTLTSYWMHWVKKRPGQGLEWIGEINPSNARSNYNEKFKSKATLTVDRSSSTVYMQLGSLTSEDSAVYYCARRGVSGNYFDYWGQGTTLTVSS
VL: DIKMTQSPSSMYASLGERVTMTCKASQDINTYLSWFQQKPGKSPKTLIYRSNILVDGVPSRFSGSRSGQDYYLTITSLEYEDMGIYYCLQYDEFPYTFGGGTKLELK
Take B2: the binding entry is recorded as “binds”.
